Laboratory results reported in article doi:10.1101/2025.11.23.689998.
These are yes or no findings as the source states them, for the method shown. In cells and extracts the contact can be indirect. These calls come from enrichment with a bait or labelling near it, and not all partners need be listed.

Protein sequences, listed by entry. Tags and fused reporters are not part of them.
UniProt P14713: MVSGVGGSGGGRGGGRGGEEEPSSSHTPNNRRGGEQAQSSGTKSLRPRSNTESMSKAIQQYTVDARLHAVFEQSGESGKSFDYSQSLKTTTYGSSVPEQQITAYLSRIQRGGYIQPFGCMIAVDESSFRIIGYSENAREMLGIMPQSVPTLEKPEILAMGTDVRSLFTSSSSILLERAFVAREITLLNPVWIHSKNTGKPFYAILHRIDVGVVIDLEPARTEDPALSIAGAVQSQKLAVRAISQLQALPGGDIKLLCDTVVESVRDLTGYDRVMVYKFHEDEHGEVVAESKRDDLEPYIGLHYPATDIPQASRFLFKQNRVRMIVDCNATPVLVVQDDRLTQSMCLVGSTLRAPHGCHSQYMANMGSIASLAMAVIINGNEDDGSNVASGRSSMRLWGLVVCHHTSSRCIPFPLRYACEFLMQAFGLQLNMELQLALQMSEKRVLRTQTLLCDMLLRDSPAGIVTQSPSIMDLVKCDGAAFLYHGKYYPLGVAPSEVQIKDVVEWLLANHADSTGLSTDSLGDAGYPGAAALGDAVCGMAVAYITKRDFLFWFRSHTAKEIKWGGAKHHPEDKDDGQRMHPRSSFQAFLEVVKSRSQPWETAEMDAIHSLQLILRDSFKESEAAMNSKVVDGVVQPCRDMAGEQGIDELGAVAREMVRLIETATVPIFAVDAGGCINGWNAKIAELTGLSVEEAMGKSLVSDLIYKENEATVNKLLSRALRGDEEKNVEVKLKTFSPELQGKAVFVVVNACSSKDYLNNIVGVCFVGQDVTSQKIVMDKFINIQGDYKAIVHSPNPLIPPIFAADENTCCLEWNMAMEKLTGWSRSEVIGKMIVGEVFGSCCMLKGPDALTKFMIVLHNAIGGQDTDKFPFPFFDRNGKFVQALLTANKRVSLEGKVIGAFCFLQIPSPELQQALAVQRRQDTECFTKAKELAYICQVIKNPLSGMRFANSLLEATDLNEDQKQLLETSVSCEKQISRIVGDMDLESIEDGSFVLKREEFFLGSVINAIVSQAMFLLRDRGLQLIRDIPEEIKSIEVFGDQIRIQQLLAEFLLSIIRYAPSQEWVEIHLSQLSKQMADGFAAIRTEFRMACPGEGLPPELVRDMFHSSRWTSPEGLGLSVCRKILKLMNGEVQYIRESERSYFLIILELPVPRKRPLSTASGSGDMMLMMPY

B1: LESION SIMULATING DISEASE 1 (LSD1) zinc finger family protein (protein, UniProt P94077 1-189)
chain: MKVADMQDQLVCHGCRNLLMYPRGASNVRCALCNTINMVPPPPPPHDMAHIICGGCRTMLMYTRGASSVRCSCCQTTNLVPAHSNQVAHAPSSQVAQINCGHCRTTLMYPYGASSVKCAVCQFVTNVNMSNGRVPLPTNRPNGTACPPSTSTSTPPSQTQTVVVENPMSVDESGKLVSNVVVGVTTDKK
B2: PHYTOCHROME C (protein, UniProt P14714 1-1111)
chain: MSSNTSRSCSTRSRQNSRVSSQVLVDAKLHGNFEESERLFDYSASINLNMPSSSCEIPSSAVSTYLQKIQRGMLIQPFGCLIVVDEKNLKVIAFSENTQEMLGLIPHTVPSMEQREALTIGTDVKSLFLSPGCSALEKAVDFGEISILNPITLHCRSSSKPFYAILHRIEEGLVIDLEPVSPDEVPVTAAGALRSYKLAAKSISRLQALPSGNMLLLCDALVKEVSELTGYDRVMVYKFHEDGHGEVIAECCREDMEPYLGLHYSATDIPQASRFLFMRNKVRMICDCSAVPVKVVQDKSLSQPISLSGSTLRAPHGCHAQYMSNMGSVASLVMSVTINGSDSDEMNRDLQTGRHLWGLVVCHHASPRFVPFPLRYACEFLTQVFGVQINKEAESAVLLKEKRILQTQSVLCDMLFRNAPIGIVTQSPNIMDLVKCDGAALYYRDNLWSLGVTPTETQIRDLIDWVLKSHGGNTGFTTESLMESGYPDASVLGESICGMAAVYISEKDFLFWFRSSTAKQIKWGGARHDPNDRDGKRMHPRSSFKAFMEIVRWKSVPWDDMEMDAINSLQLIIKGSLQEEHSKTVVDVPLVDNRVQKVDELCVIVNEMVRLIDTAAVPIFAVDASGVINGWNSKAAEVTGLAVEQAIGKPVSDLVEDDSVETVKNMLALALEGSEERGAEIRIRAFGPKRKSSPVELVVNTCCSRDMTNNVLGVCFIGQDVTGQKTLTENYSRVKGDYARIMWSPSTLIPPIFITNENGVCSEWNNAMQKLSGIKREEVVNKILLGEVFTTDDYGCCLKDHDTLTKLRIGFNAVISGQKNIEKLLFGFYHRDGSFIEALLSANKRTDIEGKVTGVLCFLQVPSPELQYALQVQQISEHAIACALNKLAYLRHEVKDPEKAISFLQDLLHSSGLSEDQKRLLRTSVLCREQLAKVISDSDIEGIEEGYVELDCSEFGLQESLEAVVKQVMELSIERKVQISCDYPQEVSSMRLYGDNLRLQQILSETLLSSIRFTPALRGLCVSFKVIARIEAIGKRMKRVELEFRIIHPAPGLPEDLVREMFQPLRKGTSREGLGLHITQKLVKLMERGTLRYLRESEMSAFVILTEFPLI
B3: PHYTOCHROME E (protein, UniProt P42498 1-1112)
chain: MGFESSSSAASNMKPQPQKSNTAQYSVDAALFADFAQSIYTGKSFNYSKSVISPPNHVPDEHITAYLSNIQRGGLVQPFGCLIAVEEPSFRILGLSDNSSDFLGLLSLPSTSHSGEFDKVKGLIGIDARTLFTPSSGASLSKAASFTEISLLNPVLVHSRTTQKPFYAILHRIDAGIVMDLEPAKSGDPALTLAGAVQSQKLAVRAISRLQSLPGGDIGALCDTVVEDVQRLTGYDRVMVYQFHEDDHGEVVSEIRRSDLEPYLGLHYPATDIPQAARFLFKQNRVRMICDCNATPVKVVQSEELKRPLCLVNSTLRAPHGCHTQYMANMGSVASLALAIVVKGKDSSKLWGLVVGHHCSPRYVPFPLRYACEFLMQAFGLQLQMELQLASQLAEKKAMRTQTLLCDMLLRDTVSAIVTQSPGIMDLVKCDGAALYYKGKCWLVGVTPNESQVKDLVNWLVENHGDDSTGLTTDSLVDAGYPGAISLGDAVCGVAAAGFSSKDYLLWFRSNTASAIKWGGAKHHPKDKDDAGRMHPRSSFTAFLEVAKSRSLPWEISEIDAIHSLRLIMRESFTSSRPVLSGNGVARDANELTSFVCEMVRVIETATAPIFGVDSSGCINGWNKKTAEMTGLLASEAMGKSLADEIVQEESRAALESLLCKALQGEEEKSVMLKLRKFGQNNHPDYSSDVCVLVNSCTSRDYTENIIGVCFVGQDITSEKAITDRFIRLQGDYKTIVQSLNPLIPPIFASDENACCSEWNAAMEKLTGWSKHEVIGKMLPGEVFGVFCKVKCQDSLTKFLISLYQGIAGDNVPESSLVEFFNKEGKYIEASLTANKSTNIEGKVIRCFFFLQIINKESGLSCPELKESAQSLNELTYVRQEIKNPLNGIRFAHKLLESSEISASQRQFLETSDACEKQITTIIESTDLKSIEEGKLQLETEEFRLENILDTIISQVMIILRERNSQLRVEVAEEIKTLPLNGDRVKLQLILADLLRNIVNHAPFPNSWVGISISPGQELSRDNGRYIHLQFRMIHPGKGLPSEMLSDMFETRDGWVTPDGLGLKLSRKLLEQMNGRVSYVREDERCFFQVDLQVKTMLGVESRGTEGSSSIK
B4: PHYTOCHROME KINASE SUBSTRATE 2 (protein, UniProt Q9M9T4 1-442)
chain: MVTLTSSSSTPNVSFDFMMNNNNNSNNLYGPFSSSSTSFSYLTSKEDALTQKNLMSGITNDVLGINKKASEDLEISVFGAEKYFNGDMDSDHSPRLVSPLPDPEVPIERIFVGPKQSSKNSSETPSLRSESSWNSQSLLLQSKYVEKKKNIKKNSSCNSYFQEKDMSSNHKVSNKKSFLATLGCRCVCSNWSSVDVVDDKRRSSGLKKIKTQLSFSGDLSSEMKIHQQQQEAMLEQRKSLEIFGSPLIEKRIIQKKFPWEYSSSAKKEEHGFSVKYEEEEDGSVSDVSTDLFEIESLTGKANPFLARQGSSDPDSPDGYAPSEVSIQWSVVTASVADFSVMSECATSPVKKNRSFQIPRIPIMAKSNREIAPQRRKSSSSGLLMGCKSHKSVRVSGDSYTSMNRTPSYVPRFPVEANPTSTETRRRISSSSVSHTQSPFLYT
B5: phytochrome-associated PROTEIN PHOSPHATASE TYPE 2C (enzyme, UniProt Q9LME4 1-281)
chain: MGKFCCFTSASEVVGGQSSSRSGKGRSDEGMIKYGFSLVKGKANHPMEDYHVANFINIQDHELGLFAIYDGHMGDSVPAYLQKRLFSNILKEGEFWVDPRRSIAKAYEKTDQAILSNSSDLGRGGSTAVTAILINGRKLWIANVGDSRAVLSHGGAITQMSTDHEPRTERSSIEDRGGFVSNLPGDVPRVNGQLAVSRAFGDKGLKTHLSSEPDIKEATVDSQTDVLLLASDGIWKVMTNEEAMEIARRVKDPQKAAKELTAEALRRESKDDISCVVVRFR
B6: RECEPTOR LIKE PROTEIN 29 (receptor, UniProt Q9SJH6 27-462)
chain: QENRVSASMPPSESETLFKIMESMSSDQQWRQSHPNPCAPGSSWPGIECKTGPDHLSHVSRLDFGSAPNPSCKSSASFPSSIFTLPFLQSVFFFNCFTHFPTTIMFPIKLIPNSSLQQLSLRSNPSLSGQIPPRISSLKSLQILTLSQNRLTGDIPPAIFSLKSLVHLDLSYNKLTGKIPLQLGNLNNLVGLDLSYNSLTGTIPPTISQLGMLQKLDLSSNSLFGRIPEGVEKLRSLSFMALSNNKLKGAFPKGISNLQSLQYFIMDNNPMFVALPVELGFLPKLQELQLENSGYSGVIPESYTKLTNLSSLSLANNRLTGEIPSGFESLPHVFHLNLSRNLLIGVVPFDSSFLRRLGKNLDLSGNRGLCLNPEDEFSVVKTGVDVCGKNVSSGGGLSVHSSKKKSQASRYYRSCFFANALFPFALFLGLHQRWVL
B7: LRR-like receptor At1g58848 (receptor, UniProt P0DI17 1-1049)
chain: MAGELISFGIQNLWNLLSQECELFQGVEDQVTELKRDLNLLSSFLKDADAKKHTSAVVKNCVEEIKEIIYDGEDTIETFVLEQNLGKTSGIKKSIRRLACIIPDRRRYALGIGGLSNRISKVIRDMQSFGVQQAIVDGGYKQPQGDKQREMRPRFSKDDDSDFVGLEANVKKLVGYLVDEANVQVVSITGMGGLGKTTLAKQVFNHEDVKHQFDGLSWVCVSQDFTRMNVWQKILRDLKPKEEEKKIMEMTQDTLQGELIRLLETSKSLIVLDDIWEKEDWELIKPIFPPTKGWKVLLTSRNESVAMRRNTSYINFKPECLTTEDSWTLFQRIALPMKDAAEFKIDEEKEELGKLMIKHCGGLPLAIRVLGGMLAEKYTSHDWRRLSENIGSHLVGGRTNFNDDNNNTCNYVLSLSFEELPSYLKHCFLYLAHFPDDYEINVKNLSYYWAAEGIFQPRHYDGEIIRDVGDVYIEELVRRNMVISERDVKTSRFETCHLHDMMREVCLLKAKEENFLQITSSRTSTGNSLSIVTSRRLVYQYPITLDVEKDINDPKLRSLVVVANTYMFWGGWSWMLLGSSFIRLELLRVLDIHRAKLKGGKLASSIGQLIHLRYLNLKHAEVTHIPYSLGNLKLLIYLNLVILVSGSTLVPNVLKEMQQLRYLALPKDMGRKTKLELSNLVKLETLKNFSTKNCSLEDLRGMVRLRTLTIELRKETSLETLAASIGGLKYLESLTITDLGSEMRTKEAGIVFDFVYLKTLTLKLYMPRLSKEQHFPSHLTTLYLQHCRLEEDPMPILEKLHQLKELELRRKSFSGKEMVCSSGGFPQLQKLSIKGLEEWEDWKVEESSMPVLHTLDIRDCRKLKQLPDEHLPSHLTSISLFFCCLEEDPMPTLERLVHLKELQLLFRSFSGRIMVCAGSGFPQLHKLKLSELDGLEEWIVEDGSMPQLHTLEIRRCPKLKKLPNGFPQLQNLELNELEEWEEWIVEDGSMPLLHTLRIWNCPKLKQLPDGLRFIYSLKNLTVPKRWKKRLSKGGEDYYKVQHIPSVEFY
B8: LRR-like receptor At1g62630 (receptor, UniProt Q9SI85 1-893)
chain: MGISFSIPFDPCVNKVSQWLDMKGSYTHNLEKNLVALETTMEELKAKRDDLLRRLKREEDRGLQRLSEFQVWLNRVATVEDIIITLLRDRDVEIQRLCLCRFCSKNLTTSYRYGKSVFLRLREVEKLKGEVFGVITEQASTSAFEERPLQPTIVGQKKMLDKAWKHLMEDGTGIMGMYGMGGVGKTTLLTQLFNMFNKDKCGFDIGIWVVVSQEVNVEKIQDEIAQKLGLGGHEWTQRDISQKGVHLFNFLKNKKFVLFLDDLWDKVELANIGVPDPRTQKGCKLAFTSRSLNVCTSMGDEEPMEVQCLEENVAFDLFQKKVGQKTLGSDPGIPQLARIVAKKCCGLPLALNVIGETMSCKRTIQEWRNAIHVLNSYAAEFIGMEDKILPLLKYSYDNLKGEHVKSSLLYCALYPEDAKIRKEDLIEHWICEEIIDGSEGIEKAEDKGYDIIGSLVRASLLMECVDLKGKSSVIMHDVVREMALWIASELGIQKEAFIVRAGVGVREIPKVKNWNVVRRMSLMGNKIHHLVGSYECMELTTLLLGEGEYGSIWRWSEIKTISSEFFNCMPKLAVLDLSHNQSLFELPEEISNLVSLKYLNLSHTGIRHLSKGIQELKKIIHLNLEHTSKLESIDGISSLHNLKVLKLYGSRLPWDLNTVKELETLEHLEILTTTIDPRAKQFLSSHRLMSRSRLLQIFGSNIFSPDRQLESLSVSTDKLREFEIMCCSISEIKMGGICNFLSLVDVTIYNCEGLRELTFLIFAPKLRSLSVVDAKDLEDIINEEKACEGEDSGIVPFPELKYLNLDDLPKLKNIYRRPLPFLCLEKITIGECPNLRKLPLDSRSGKQGENGCIIHYKDSRWLKGVKWADEATKKRFLPSCEHRLERCETIFED
B9: LRR-like receptor At3g24480 (receptor, UniProt Q9LHF1 26-494)
chain: LSISSNAPLSDTEVRFIQRRQLLYYRDEFGDRGENVTVDPSLIFENPRLRSAYIALQAWKQAILSDPNNITVNWIGSNVCNYTGVFCSKALDNRKIRTVAGIDLNHADIAGYLPEELGLLTDLALFHVNSNRFCGTVPHKFKQLKLLFELDLSNNRFAGKFPTVVLHLPSLKFLDLRFNEFEGTVPKELFSKNLDAIFINHNRFRFELPENFGDSPVSVIVLANNHFHGCIPTSLVEMKNLNEIIFMNNGLNSCLPADIGRLKNVTVFDVSFNELVGPLPESVGGMVEVEQLNVAHNLLSGKIPASICQLPKLENFTYSYNFFTGEAPVCLRLSEFDDRRNCLPGRPAQRSSRQCSAFLSRPSVDCGSFGCGRSVVKPSPPIVALPPPPPPSPPLPPPVYSPPPSPPVFSPPPSPPVYSPPPPPSIHYSSPPPPPVHHSSPPPPSPEFEGPLPPVIGVSYASPPPPPFY

Each binder was assayed against phyB-miniTurbo (phyB CDS - miniTurbo-sCFP3A-3FLAG) (Arabidopsis thaliana) (UniProt P14713) (assay: proximity labelling).

Binder | binding
B1 | binds
B2 | binds
B3 | binds
B4 | binds
B5 | binds
B6 | binds
B7 | binds
B8 | binds
B9 | binds
